Results are given in words; binding and its absence hold for the method and conditions named. In cells and extracts the contact can be indirect. Some results given as binding are weak or reduced against the parent protein; the word gives no strength.

By UniProt entry, the sequences of proteins in these tests, tags left out. Residues count along the entry.
UniProt P20333, residues 23-461: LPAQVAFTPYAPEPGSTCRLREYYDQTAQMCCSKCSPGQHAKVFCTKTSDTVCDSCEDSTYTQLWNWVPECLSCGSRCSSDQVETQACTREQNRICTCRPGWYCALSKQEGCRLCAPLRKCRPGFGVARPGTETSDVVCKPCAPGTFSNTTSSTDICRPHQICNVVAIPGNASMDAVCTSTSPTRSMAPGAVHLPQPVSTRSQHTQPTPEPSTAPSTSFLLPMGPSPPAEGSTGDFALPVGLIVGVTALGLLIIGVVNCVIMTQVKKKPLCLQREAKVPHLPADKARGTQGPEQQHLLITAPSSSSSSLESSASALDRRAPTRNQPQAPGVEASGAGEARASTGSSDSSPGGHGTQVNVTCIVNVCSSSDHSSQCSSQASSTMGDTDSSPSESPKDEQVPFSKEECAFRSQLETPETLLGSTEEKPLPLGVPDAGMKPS
UniProt Q9P206: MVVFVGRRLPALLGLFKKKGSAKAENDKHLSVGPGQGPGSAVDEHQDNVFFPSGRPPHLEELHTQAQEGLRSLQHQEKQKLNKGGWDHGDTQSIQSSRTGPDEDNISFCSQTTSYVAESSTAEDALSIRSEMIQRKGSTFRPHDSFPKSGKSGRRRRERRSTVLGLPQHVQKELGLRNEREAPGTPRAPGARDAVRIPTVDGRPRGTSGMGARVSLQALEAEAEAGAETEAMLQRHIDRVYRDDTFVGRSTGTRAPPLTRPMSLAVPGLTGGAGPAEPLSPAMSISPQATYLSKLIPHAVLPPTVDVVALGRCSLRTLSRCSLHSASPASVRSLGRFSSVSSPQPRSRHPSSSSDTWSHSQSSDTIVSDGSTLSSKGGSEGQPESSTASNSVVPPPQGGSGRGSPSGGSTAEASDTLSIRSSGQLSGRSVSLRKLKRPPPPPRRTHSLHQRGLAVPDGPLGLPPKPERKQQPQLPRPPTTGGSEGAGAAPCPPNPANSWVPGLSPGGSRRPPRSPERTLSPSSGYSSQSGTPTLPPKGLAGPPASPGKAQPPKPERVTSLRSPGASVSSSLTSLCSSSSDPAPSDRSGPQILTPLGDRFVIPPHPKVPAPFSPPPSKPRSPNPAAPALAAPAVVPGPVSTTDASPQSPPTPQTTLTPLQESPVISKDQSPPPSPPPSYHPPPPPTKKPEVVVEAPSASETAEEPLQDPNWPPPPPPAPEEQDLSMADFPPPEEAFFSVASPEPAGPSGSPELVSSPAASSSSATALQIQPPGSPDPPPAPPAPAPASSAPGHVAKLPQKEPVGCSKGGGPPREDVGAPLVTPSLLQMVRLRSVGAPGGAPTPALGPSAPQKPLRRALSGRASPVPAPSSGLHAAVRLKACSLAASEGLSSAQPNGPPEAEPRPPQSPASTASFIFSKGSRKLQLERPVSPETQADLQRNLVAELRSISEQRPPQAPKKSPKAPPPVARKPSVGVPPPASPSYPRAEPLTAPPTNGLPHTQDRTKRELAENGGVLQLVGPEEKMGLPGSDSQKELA

This assay deals with TNFR2 (UniProt P20333). Description: co-IP; cells lysed in IP lysis buffer, pre-cleared with Protein G-agarose, primary antibody 3 h at 4 °C, Protein G-agarose overnight, washed three times with TBS, western blot; cells and precipitating antibody for this pair not told. A general note: Immunoblotting shows a protein as a band on a membrane.

KIAA1522 (from UniProt Q9P206 1-1035): the binding entry is given as “binds”.
